Data on three sequences can be found in patent US20040191815.

Chains of the proteins cited; added tags and fusions are not shown. Chains listed by the source or under a name are the forms on record and can include a tag or linker.
MafG homodimer, one chain, as listed by the source: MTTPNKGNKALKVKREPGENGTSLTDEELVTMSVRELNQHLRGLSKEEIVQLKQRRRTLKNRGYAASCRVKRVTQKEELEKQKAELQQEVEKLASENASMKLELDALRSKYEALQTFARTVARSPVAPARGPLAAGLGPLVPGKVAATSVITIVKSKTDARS

For at least one entry, the source does not settle the construct or the ends of the probe. A negative result means that nothing was seen under these conditions. For some of these results: Weaker means in comparison with the reference protein, sequence or condition of that experiment.

In one data set the test system is GATA-1. As to the kind of experiment: SPR. The conditions noted are these: 5' thiol on anchor strand (immobilized).
The next data set relates to MafG homodimer. The data set can be described thus: SPR. The conditions noted are these: 5' thiol on anchor strand (immobilized), variant of MARE 25.

For the sequence “TTTTTTTTTTTTTTTCGGAATAGTAATTACG / CGTAATTATCATTCCG [GATA mut]”, the binding result in the data set on GATA-1 (same buffer, substantially no binding, variant of GATA reg) was “no binding”.

On to “TTTTTTTTTTTTTTTCGGAATCAATGACTCATTGTTACTC (double strand) [MARE23]”, for which the binding result with MafG homodimer (Example 1, 300 mM NaCl, substantially no binding) is given as “no binding”; in the data set with MafG homodimer (bonding strength stated as low, also N.D by GMSA) it was “binds more weakly”.

“TTTTTTTTTTTTTTTCGGAATGATAATTACG / CGTAATTATCATTCCG [GATA reg]”: the binding result with GATA-1 (20 mM Hepes, 300 mM NaCl, 0.2 mM ZnCl2, 0.005% Tween 20, pH 7.9, poly dIdC 100 ug/ml) is “binds”.
